To fix the notation:
T1: murine EpCAM in fusion with yellow fluorescent protein (YFP) at the C-terminus, in mF9 cells (murine) (UniProt Q99JW5)
T1 sequence: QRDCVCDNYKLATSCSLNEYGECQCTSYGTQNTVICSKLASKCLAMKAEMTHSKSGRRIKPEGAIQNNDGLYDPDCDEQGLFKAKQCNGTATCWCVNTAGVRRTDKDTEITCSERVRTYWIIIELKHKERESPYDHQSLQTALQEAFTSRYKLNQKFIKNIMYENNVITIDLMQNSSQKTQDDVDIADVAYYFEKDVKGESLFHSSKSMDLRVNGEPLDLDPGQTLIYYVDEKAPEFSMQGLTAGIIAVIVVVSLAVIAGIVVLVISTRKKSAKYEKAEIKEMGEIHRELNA

By UniProt entry, the sequences of proteins in these tests, tags left out.
UniProt D4AFX7: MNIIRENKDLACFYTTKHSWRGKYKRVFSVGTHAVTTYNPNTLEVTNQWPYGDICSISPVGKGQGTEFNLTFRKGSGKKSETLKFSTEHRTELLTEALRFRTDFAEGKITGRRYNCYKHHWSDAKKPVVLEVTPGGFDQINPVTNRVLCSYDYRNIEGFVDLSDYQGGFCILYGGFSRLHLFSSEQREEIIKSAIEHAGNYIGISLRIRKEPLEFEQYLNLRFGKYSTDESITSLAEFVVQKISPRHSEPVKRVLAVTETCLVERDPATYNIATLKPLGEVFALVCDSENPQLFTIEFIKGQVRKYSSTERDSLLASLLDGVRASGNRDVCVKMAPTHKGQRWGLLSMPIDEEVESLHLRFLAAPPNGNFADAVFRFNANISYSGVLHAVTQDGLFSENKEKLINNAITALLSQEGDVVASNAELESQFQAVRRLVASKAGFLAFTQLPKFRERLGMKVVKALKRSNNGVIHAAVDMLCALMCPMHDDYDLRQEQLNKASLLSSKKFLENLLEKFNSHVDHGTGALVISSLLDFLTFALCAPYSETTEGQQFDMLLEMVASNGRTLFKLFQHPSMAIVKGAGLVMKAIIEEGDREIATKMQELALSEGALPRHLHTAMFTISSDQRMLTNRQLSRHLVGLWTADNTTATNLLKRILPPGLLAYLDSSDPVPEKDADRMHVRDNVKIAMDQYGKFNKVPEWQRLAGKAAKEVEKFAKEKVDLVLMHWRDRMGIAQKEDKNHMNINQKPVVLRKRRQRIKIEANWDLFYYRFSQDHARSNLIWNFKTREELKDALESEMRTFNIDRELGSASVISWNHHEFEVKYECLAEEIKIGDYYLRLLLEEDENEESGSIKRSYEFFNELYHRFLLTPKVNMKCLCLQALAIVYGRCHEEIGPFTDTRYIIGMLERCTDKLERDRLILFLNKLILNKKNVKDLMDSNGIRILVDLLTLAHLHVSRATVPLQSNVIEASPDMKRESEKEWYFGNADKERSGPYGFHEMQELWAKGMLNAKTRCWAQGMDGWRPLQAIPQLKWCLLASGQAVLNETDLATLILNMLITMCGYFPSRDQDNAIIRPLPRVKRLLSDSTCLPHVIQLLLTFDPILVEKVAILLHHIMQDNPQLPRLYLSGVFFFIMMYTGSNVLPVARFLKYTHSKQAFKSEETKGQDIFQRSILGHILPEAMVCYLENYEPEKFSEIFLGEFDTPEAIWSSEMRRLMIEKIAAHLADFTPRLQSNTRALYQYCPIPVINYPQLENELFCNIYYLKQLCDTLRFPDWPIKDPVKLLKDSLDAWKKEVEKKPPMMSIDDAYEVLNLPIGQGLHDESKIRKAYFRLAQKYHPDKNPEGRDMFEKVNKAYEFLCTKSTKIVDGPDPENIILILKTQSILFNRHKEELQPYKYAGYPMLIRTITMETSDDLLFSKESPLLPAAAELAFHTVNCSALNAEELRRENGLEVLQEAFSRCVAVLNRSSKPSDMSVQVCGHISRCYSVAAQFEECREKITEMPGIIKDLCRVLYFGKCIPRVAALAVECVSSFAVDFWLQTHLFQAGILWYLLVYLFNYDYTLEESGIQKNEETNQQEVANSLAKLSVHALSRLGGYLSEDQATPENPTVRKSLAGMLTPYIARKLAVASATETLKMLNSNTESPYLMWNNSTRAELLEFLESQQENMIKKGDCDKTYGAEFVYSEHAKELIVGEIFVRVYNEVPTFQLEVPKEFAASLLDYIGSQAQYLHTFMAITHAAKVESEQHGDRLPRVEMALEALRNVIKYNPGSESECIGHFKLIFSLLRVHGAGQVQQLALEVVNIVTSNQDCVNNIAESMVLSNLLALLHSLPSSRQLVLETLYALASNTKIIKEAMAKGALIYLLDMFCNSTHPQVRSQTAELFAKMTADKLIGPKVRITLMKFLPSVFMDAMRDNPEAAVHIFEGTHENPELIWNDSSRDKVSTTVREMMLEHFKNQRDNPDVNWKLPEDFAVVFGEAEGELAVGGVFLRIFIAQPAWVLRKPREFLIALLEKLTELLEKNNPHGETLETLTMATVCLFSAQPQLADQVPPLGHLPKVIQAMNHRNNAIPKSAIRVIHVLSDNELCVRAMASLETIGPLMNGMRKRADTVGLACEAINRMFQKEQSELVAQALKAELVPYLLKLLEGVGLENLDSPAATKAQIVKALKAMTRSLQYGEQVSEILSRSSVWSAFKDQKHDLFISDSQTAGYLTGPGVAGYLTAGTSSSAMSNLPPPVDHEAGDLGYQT
UniProt Q9CQ22: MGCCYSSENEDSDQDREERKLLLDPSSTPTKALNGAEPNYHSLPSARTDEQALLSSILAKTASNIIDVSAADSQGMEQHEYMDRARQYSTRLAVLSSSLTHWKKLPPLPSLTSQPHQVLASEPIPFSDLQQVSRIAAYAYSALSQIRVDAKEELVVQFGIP
UniProt Q9Z1R2: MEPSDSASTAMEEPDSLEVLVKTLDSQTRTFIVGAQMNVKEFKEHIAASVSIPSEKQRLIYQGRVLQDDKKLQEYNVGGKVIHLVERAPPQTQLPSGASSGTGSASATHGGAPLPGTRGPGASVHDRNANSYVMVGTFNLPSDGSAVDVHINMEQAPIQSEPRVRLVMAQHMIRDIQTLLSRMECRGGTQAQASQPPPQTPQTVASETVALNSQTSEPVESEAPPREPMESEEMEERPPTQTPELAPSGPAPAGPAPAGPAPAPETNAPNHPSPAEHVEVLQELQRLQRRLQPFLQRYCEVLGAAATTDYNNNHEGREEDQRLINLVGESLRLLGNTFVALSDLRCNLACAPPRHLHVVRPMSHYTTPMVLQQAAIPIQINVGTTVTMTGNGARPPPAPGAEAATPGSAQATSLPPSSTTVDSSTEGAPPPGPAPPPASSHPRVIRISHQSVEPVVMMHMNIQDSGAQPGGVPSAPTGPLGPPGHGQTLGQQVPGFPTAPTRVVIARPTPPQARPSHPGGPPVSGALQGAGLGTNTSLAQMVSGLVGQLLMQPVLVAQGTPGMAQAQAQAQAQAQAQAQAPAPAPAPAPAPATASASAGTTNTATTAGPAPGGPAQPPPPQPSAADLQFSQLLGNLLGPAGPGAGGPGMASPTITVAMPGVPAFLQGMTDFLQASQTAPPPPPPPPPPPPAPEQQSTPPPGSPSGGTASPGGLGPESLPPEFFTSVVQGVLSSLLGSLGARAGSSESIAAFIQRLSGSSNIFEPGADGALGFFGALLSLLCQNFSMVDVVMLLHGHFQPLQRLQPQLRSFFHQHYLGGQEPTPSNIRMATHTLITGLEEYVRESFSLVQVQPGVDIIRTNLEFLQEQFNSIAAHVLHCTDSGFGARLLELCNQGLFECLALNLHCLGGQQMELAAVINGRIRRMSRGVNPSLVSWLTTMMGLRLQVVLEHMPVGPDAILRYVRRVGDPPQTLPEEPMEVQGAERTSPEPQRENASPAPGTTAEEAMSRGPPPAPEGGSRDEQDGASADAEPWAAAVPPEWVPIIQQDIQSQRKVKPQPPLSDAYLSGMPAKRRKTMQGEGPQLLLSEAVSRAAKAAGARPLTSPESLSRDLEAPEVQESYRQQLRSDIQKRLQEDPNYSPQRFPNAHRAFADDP
UniProt O35129: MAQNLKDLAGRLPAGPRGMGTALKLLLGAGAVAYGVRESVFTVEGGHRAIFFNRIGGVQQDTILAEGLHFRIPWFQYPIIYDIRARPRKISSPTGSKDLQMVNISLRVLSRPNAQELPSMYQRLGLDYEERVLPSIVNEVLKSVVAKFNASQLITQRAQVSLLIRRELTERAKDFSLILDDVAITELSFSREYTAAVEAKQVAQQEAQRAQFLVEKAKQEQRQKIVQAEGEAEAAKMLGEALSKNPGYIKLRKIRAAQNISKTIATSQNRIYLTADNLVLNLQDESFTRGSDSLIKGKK
UniProt Q9QUI0: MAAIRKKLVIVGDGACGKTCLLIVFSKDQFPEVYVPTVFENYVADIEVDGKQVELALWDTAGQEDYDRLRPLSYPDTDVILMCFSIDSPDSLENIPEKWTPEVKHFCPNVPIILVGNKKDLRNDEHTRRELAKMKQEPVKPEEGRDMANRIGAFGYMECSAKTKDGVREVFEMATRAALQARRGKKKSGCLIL
UniProt P35293: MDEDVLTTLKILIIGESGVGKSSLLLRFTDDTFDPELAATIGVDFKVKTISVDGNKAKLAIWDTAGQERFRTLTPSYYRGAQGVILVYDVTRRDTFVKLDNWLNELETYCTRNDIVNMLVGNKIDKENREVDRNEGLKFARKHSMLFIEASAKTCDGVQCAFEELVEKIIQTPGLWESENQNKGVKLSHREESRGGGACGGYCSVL
UniProt P56395: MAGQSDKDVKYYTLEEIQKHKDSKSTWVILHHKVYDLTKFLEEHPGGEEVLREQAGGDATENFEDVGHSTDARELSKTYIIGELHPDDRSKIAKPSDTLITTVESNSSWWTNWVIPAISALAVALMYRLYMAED
UniProt Q9DC51: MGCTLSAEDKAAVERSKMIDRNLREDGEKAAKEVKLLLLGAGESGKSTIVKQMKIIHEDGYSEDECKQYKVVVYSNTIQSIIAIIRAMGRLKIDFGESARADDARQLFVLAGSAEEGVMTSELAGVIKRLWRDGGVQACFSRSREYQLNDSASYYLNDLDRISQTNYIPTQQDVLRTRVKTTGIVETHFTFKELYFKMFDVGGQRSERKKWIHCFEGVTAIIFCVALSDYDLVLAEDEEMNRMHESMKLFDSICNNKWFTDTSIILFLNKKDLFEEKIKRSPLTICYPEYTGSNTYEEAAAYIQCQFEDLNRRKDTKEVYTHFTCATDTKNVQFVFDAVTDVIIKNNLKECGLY
UniProt E9QAE3: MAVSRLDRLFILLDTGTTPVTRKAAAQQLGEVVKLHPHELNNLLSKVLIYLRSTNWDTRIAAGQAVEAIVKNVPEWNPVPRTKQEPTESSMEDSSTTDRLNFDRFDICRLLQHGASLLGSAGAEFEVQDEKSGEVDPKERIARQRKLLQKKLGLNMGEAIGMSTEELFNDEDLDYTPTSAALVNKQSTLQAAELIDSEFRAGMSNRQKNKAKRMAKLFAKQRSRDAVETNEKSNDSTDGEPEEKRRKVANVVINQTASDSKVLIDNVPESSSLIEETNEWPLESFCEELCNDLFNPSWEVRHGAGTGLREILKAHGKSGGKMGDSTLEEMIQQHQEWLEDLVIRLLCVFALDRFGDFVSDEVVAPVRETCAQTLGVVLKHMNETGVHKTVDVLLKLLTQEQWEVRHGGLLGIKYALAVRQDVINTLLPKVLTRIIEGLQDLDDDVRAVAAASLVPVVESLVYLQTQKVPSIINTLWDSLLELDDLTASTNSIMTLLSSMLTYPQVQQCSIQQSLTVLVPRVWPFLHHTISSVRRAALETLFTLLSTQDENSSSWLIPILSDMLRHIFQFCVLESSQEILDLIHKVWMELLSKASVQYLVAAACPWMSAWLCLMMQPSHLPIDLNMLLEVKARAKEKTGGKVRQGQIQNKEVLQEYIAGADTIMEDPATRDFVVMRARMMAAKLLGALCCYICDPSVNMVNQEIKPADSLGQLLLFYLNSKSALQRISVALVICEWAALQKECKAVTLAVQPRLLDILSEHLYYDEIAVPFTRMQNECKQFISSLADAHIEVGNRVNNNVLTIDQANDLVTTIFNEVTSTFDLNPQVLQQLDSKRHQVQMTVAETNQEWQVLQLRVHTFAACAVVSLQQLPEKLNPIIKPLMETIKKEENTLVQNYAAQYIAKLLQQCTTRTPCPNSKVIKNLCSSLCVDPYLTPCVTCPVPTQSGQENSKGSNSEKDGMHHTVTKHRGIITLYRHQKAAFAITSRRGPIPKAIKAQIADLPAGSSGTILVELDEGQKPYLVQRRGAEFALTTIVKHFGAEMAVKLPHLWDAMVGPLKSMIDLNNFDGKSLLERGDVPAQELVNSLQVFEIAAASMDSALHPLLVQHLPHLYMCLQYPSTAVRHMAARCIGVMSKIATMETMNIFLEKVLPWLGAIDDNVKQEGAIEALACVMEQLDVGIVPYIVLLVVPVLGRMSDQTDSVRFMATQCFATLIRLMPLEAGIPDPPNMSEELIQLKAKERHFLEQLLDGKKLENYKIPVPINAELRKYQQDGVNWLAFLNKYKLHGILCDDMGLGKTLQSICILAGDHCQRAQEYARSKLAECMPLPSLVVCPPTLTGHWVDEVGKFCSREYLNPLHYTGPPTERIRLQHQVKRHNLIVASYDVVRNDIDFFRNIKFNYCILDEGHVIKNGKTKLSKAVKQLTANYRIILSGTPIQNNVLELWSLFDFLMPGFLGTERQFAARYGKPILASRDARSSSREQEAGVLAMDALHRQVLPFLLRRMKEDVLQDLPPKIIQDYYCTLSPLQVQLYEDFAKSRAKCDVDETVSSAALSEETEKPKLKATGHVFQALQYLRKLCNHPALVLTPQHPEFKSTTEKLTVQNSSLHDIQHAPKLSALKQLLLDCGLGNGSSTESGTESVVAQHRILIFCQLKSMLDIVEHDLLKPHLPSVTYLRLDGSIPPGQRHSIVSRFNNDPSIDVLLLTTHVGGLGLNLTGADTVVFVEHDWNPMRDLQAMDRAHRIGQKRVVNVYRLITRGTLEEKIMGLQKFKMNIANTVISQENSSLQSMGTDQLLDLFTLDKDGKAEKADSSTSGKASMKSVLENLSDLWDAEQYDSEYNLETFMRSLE

B1: Vesicle-associated membrane protein 8 (protein, UniProt O70404 1-101)
chain: MEEASGSAGNDRVRNLQSEVEGVKNIMTQNVERILSRGENLDHLRNKTEDLEATSEHFKTTSQKVARKFWWKNVKMIVIICVIVLIIVILIILFATGTIPT
B2: Phosphatidate cytidylyltransferase 2 (protein, UniProt Q99L43 1-444)
chain: MTELRQRVVREDAPPEDKESESEAKLDGETASDSESRAETAPLPTSVDDTPEVLNRALSNLSSRWKNWWVRGILTLAMIAFFFIIIYLGPMVLMMIVMCVQIKCFHEIITIGYNVYHSYDLPWFRTLSWYFLLCVNYFFYGETVTDYFFTLVQREEPLRILSKYHRFISFALYLTGFCMFVLSLVKKHYRLQFYMFGWTHVTLLIVVTQSHLVIHNLFEGMIWFIVPISCVICNDIMAYMFGFFFGRTPLIKLSPKKTWEGFIGGFFATVVFGLLLSYVMSGYRCFVCPVEYNNDTNSFTVDCEPSDLFRLQEYNIPGVIQSAIGWKTVRMYPFQIHSIALSTFASLIGPFGGFFASGFKRAFKIKDFANTIPGHGGIMDRFDCQYLMATFVNVYIASFIRGPNPSKLIQQFLTLRPDQQLHIFNTLKSHLTDKGILTSALEDE
B3: Cleft lip and palate transmembrane protein 1 (protein, UniProt Q8VBZ3 1-664)
chain: MAAAQEADGAGSAVVAAGGGSSGQVTSNGSIGRDTPAETQPQNPPPQPAPNAWQVIKGVLFRIFIIWAISSWFRRGPSPQDQSGPGGAPRVASRNLFPKDTLMNLHVYISEHEHFTDFNATSALFWEQHDLVYGDWTSGENSDGCYEHFAELDIPQSVQQNGSIYIHVYFTKSGFHPDPRQKALYRRLATVHMSRMINKYKRRRFQKTKNLLTGETEADPEMIKRAEDYGPVEVISHWHPNITINIVDDHTPWVKGSVPPPLDQYVKFDAVSGDYYPIIYFNDYWNLQKDYYPINESLASLPLRVSFCPLSLWRWQLYAAQSTKSPWNFLGDELYEQSDEEQDSVKVALLETSPYLLALTIIVSIVHSVFEFLAFKNDIQFWNSRQSLEGLSVRSVFFGVFQSFVVLLYILDNETNFVVQVSVFIGVLIDLWKITKVMDVRLDREHRVAGIFPCPTFKDKSTYIESSTKVYDDMAFRYLSWILFPLLGCYAVYSLLYLEHKGWYSWVLSMLYGFLLTFGFITMTPQLFINYKLKSVAHLPWRMLTYKALNTFIDDLFAFVIKMPVMYRIGCLRDDVVFFIYLYQRWIYRVDPTRVNEFGMSGEDVSAAASRAQASTAAGALTPAPSTAVSGEDASTVPKATSGACTASQPQEAPPKPAEDKKKD
B4: Flotillin-2 (protein, UniProt Q60634 1-428)
chain: MGNCHTVGPNEALVVSGGCCGSDYKQYVFGGWAWAWWCISDTQRISLEIMTLQPRCEDVETAEGVALTVTGVAQVKIMTEKELLAVACEQFLGKNVQDIKNVVLQTLEGHLRSILGTLTVEQIYQDRDQFAKLVREVAAPDVGRMGIEILSFTIKDVYDKVDYLSSLGKTQTAVVQRDADIGVAEAERDAGIREAECKKEMLDVKFMADTKIADSKRAFELQKSAFSEEVNIKTAEAQLAYELQGAREQQKIRQEEIEIEVVQRKKQIAVEAQEILRTDKELIATVRRPAEAEAHRIQQIAEGEKVKQVLLAQAEAEKIRKIGEAEAAVIEAMGKAEAERMKLKAEAYQKYGDAAKMALVLEALPQIAAKISAPLTKVDEIVVLSGDNSKVTSEVNRLLAELPASVHALTGVDLSKIPLIKNATGAQV

Results are given in words; binding and its absence hold for the method and conditions named. In cells and extracts the contact can be indirect. Here binding means that the protein was enriched with, or labelled near, the bait; the list need not be complete. Where a sequence is shown, tags or fusion partners need not be part of it.

The test concerns the target T1, murine EpCAM in fusion with yellow fluorescent protein (YFP) at the C-terminus, in mF9 cells (murine). Put plainly: affinity purification with mass spectrometry; SILAC: whole cell lysates of mF9 cells stably expressing EpCAM-YFP (heavy, Lys-8/Arg-10) or YFP (light); 3 or 7 mg lysate with 30 μL GFP-Trap agarose beads, 3 hrs, 4°C; washed in 0.2% tween in PBS; LC-MS/MS; three biological repeats; hits: enriched >3-fold over YFP, p ≤ 0.05, at least 2 unique peptides.
For “DnaJ heat shock protein family (Hsp40) member C13 (from UniProt D4AFX7 1-2248)”, the binding entry is listed as “binds”.

In the case of “Sec1 family domain-containing protein 1 (from UniProt Q8BRF7-1 1-639)”, the binding result is “binds”.

With “eIF-2-alpha kinase activator (from UniProt E9PVA8 1-2671)”, the binding entry was “binds”.

On to “Ragulator complex protein LAMTOR1 (from UniProt Q9CQ22 1-161)”, for which the binding entry is reported as “binds”.

Consider “Integrin alpha-6 (mouse (endogenous in mF9))”, for which the binding entry is reported as “binds”.

As for “Bcl2-associated anthanogene 6 (from UniProt Q9Z1R2 1-1154)”, the binding entry is on record as “binds”.

For “Prohibitin-2 (from UniProt O35129 1-299)”, the binding result is “binds”.

Consider “Voltage-dependent anion-selective channel 1 (from UniProt Q60932-1 1-296)”, for which the binding result was “binds”.

For the molecule “Transforming protein RhoA (from UniProt Q9QUI0 1-193)”, the binding entry was “binds”.

With “Ras-related protein Rab-7 (from UniProt P51150 1-207)”, the binding entry is “binds”.

Turning to “Telomere-associated protein Rif1 (from UniProt Q6PR54 1-2419)”, the binding entry is reported as “binds”.

As to “Integrin beta-1 (from UniProt P09055-1 21-798)”, the binding entry is given as “binds”.

As to “CCR4-NOT transcription complex subunit 1 (from UniProt Q6ZQ08-4 1-2376)”, the binding entry is on record as “binds”.

“Ras-related protein 1b (from UniProt Q99JI6 1-184)”: the binding result is reported as “binds”.

“Solute carrier family 3 member 2 (from UniProt P10852-2 1-565)”: the binding result is on record as “binds”.

“Ras-related protein Rab18 (from UniProt P35293 1-206)”: the binding entry is “binds”.

For the molecule “Vesicle-associated membrane protein 3 (from UniProt P63024 1-103)”, the binding entry is “binds”.

Consider “Cancerous inhibitor of PP2A (from UniProt Q8BWY9 1-907)”, for which the binding result is “binds”.

For the molecule “Cytoskeleton-associated protein 5 (from UniProt A2AGT5 1-2032)”, the binding result was “binds”.

Regarding “Cytochrome b5 (from UniProt P56395 1-134)”, the binding result is “binds”.

As to “Ras-related protein Rab-6A (from UniProt P35279-1 1-208)”, the binding entry is recorded as “binds”.

Consider Mon2 (from UniProt Q80TL7-1 1-1715), for which the binding result is “binds”.

“DnaJ homolog subfamily A member 2 (from UniProt Q9QYJ0 1-412)”: the binding result was “binds”.

Regarding “Guanine nucleotide-binding protein G 8K) subunit alpha (from UniProt Q9DC51 1-354)”, the binding result is “binds”.

Take “Ras-related protein Rab-1B (from UniProt Q9D1G1 1-201)”: the binding result is listed as “binds”.

In the case of “Low-density lipoprotein receptor-related 2 (mouse (endogenous in mF9))”, the binding result is listed as “binds”.

Consider “Scan domain-containing protein 3 (from UniProt B2RPU8)”, for which the binding result is given as “binds”.

On to “Manganese-transporting ATPase 13A1 (from UniProt Q9EPE9 1-1200)”, for which the binding entry is recorded as “binds”.

With “TATA-binding protein-associated factor 172 (from UniProt E9QAE3 1-1848)”, the binding entry is “binds”.

Consider “Ras-related protein Rab8a (from UniProt P55258 1-207)”, for which the binding entry was “binds”.

For “DnaJ homolog subfamily A member 1 (from UniProt P63037 1-397)”, the binding result is “binds”.

B1: the binding entry was “binds”.

As for B2, the binding entry is given as “binds”.

For the molecule B3, the binding result is “binds”.

As to B4, the binding entry was “binds”.

Values taken from article PMC8517208.
